Laboratory results from PMC8834003.
No constants are given. Whether binding was seen depends on the method and setting.

Target: T1, mouse sperm-associated antigen 6-like (SPAG6L), the evolved gene on chromosome 16 (mouse) (UniProt Q9JLI7)
T1 sequence: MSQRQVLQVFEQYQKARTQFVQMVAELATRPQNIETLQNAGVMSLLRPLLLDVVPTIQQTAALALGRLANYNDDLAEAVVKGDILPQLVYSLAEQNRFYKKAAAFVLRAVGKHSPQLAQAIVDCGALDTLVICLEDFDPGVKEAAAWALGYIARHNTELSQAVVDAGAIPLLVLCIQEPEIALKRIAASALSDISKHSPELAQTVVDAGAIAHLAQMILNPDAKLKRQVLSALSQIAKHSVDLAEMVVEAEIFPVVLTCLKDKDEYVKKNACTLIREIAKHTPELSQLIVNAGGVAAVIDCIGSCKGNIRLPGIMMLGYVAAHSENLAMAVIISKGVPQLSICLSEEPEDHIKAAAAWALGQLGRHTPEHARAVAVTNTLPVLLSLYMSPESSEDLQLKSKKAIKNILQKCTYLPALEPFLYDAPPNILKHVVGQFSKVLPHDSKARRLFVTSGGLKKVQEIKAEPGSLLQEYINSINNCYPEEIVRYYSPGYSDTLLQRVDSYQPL
Test: two-hybrid; direct yeast two-hybrid assay; indicated pGBK-T7 and pGAD-T7 plasmids transformed into AH109 yeast; growth on non-selection medium (SD-2) and selection medium (SD-3)

- binding: no binding
B1: mouse Ccdc103 (protein, UniProt Q9D9P2 1-237)
chain: MEKNDVINFKALEKELQAALAADEKYKRENAAKLRAVEQRVPSYEEFRGIVLASHLKPLEQKDKMGGKRFVPWNCHTTRERTSQDVVTEIPQEKSPFQPTTSAEFYRDWRRHLRSGPERYQALLQLGGPKLGHLFQMDVGFGLLGELLVALAEHARLSDRTAVLGILHSLANTGRFNLNLSLLSHAERESCQRLFQKLQAMSTTRPMQEGLTVEEPSAGLQGEEGLLQELLELYGVH
